Results on five molecules are retold here after publication PMC2860243.

Chains of the proteins cited; added tags and fusions are not shown.
UniProt P20263: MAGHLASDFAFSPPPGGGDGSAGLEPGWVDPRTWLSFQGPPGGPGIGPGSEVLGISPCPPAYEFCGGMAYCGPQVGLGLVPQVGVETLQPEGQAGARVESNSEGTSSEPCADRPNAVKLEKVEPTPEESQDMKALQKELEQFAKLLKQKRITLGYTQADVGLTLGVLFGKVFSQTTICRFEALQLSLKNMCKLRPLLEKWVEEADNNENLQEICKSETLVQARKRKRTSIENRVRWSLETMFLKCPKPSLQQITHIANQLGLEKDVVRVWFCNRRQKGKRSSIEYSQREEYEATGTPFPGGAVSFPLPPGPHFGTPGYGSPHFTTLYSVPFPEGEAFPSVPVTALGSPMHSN
UniProt Q8BX22: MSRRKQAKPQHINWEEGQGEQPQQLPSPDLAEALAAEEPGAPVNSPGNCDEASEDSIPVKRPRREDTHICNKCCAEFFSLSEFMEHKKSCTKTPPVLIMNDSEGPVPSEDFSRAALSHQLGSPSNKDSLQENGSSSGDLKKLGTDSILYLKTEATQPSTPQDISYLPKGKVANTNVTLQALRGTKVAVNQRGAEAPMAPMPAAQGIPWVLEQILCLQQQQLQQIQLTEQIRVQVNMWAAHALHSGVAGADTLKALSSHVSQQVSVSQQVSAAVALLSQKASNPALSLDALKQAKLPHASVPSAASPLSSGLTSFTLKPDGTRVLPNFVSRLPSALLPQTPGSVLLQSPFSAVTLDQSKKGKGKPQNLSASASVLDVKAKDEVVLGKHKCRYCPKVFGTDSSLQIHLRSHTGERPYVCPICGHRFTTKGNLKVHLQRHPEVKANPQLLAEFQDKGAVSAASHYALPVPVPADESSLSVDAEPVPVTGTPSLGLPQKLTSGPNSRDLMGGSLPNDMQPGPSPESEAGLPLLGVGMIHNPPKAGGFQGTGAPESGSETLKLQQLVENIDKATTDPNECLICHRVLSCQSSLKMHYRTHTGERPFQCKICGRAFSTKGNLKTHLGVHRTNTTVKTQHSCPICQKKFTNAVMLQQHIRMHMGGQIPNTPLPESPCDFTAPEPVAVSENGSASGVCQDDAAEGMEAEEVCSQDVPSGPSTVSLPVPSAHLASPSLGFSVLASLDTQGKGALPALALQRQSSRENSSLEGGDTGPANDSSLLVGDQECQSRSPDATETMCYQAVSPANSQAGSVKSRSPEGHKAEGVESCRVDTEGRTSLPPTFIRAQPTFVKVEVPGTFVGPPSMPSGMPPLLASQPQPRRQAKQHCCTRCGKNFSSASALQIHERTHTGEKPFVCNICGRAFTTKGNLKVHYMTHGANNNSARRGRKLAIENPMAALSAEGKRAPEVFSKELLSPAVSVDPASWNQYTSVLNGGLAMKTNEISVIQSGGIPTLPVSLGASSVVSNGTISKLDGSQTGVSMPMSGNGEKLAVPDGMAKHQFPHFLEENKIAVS

First the molecules themselves.
B1: Zfp143 (protein, UniProt O70230 1-638)
chain: MLLAQINRDSQGMTEFPGGGMEAQHVTLCLTEAVTVADGDNLENMEGVSLQAVTLADGSTAYIQHNSKDGRLIDGQVIQLEDGSAAYVQHVPIPKSTGDSLRLEDGQAVQLEDGTTAFIHHTSKDSYDQSSLQAVQLEDGTTAYIHHAVQVPQSDTILAIQADGTVAGLHTGDATIDPDTISALEQYAAKVSIDGSDGVTSTGMIGENEQEKKMQIVLQGHATRVTPKSQQSGEKAFRCKYDGCGKLYTTAHHLKVHERSHTGDRPYQCEHSGCGKAFATGYGLKSHFRTHTGEKPYRCSEDNCTKSFKTSGDLQKHIRTHTGERPFKCPIEGCGRSFTTSNIRKVHIRTHTGERPYYCTEPGCGRAFASATNYKNHVRIHTGEKPYVCTVPGCDKRFTEYSSLYKHHVVHTHSKPYNCNHCGKTYKQISTLAMHKRTAHNDTEPIEEEQEAFFEPPPGQGDDVLKGSQITYVTGVDGEDIVSTQVATVTQSGLSQQVTLISQDGTQHVNISQADMQAIGNTITMVTQDGTPITVPTHDAVISSAGTHSVAMVTAEGTEGQQVAIVAQDLAAFHTASSEMGHQQHSHHLVTTETRPLTLVATSNGTQIAVQLGEQPSLEEAIRIASRIQQGETPGLDD
B2: Tcfcp2l1 (protein, UniProt Q3UNW5 1-479)
chain: MLFWHTQPEHYNQHNSGSYLRDVLALPIFKQEEPQLSPENGARLPPLQYVLCAATSPAVKLHEETLTYLNQGQSYEIRLLENRKLGDFQDLNTKYVKSIIRVVFHDRRLQYTEYQQLEGWRWSRPGDRILDIDIPLSVGILDPRASPTQLNAVEFLWDPSKRASAFIQVHCISTEFTPRKHGGEKGVPFRVQIDTFKQNESGDYSEHLHSASCQIKVFKPKGADRKQKTDREKMEKRTAQEKEKYQPSYETTILTECSPWPDVPYQANNTPSPSYNGSPNSFGLREGNSSPNHPVEPLPLGSDHLLPSASIQDAQQWLHRNRFSQFCWLFASFSGADLLKMSRDDLVQVCGPADGIRLFNAIKGRNVRPKMTIYVCQELEQNQLPLPQKQDDSGDNSLCVYHAIFLEELTTLELTEKIASLYSIPPQHIHRVYRQGPAGIHVVVSNEMVQNFQDESCFILSTLKAESNDGYHIILKCGL
B3: Dax1 (protein, UniProt Q61066 1-472)
chain: MAGEDHPWQGSILYNLLMSAKQKHASQEEREVRLGAQCWGCACGAQPVLGGERLSGGQARSLLYRCCFCGENHPRQGGILYSMLTNARQPSVATQAPRARFGAPCWGCACGSAEPLVGREGLPAGQAPSLLYRCCFCGEEHPRQGSILYSLLTSAQQTHVSREAPEAHRRGEWWQLSYCTQSVGGPEGLQSTQAMAFLYRSYVCGEEQPQQISVASGTPVSADQTPATPQEQPRAPWWDASPGVQRLITLKDPQVVCEAASAGLLKTLRFVKYLPCFQILPLDQQLVLVRSCWAPLLMLELAQDHLHFEMMEIPETNTTQEMLTTRRQETEGPEPAEPQATEQPQMVSAEAGHLLPAAAVQAIKSFFFKCWSLNIDTKEYAYLKGTVLFNPDLPGLQCVKYIEGLQWRTQQILTEHIRMMQREYQIRSAELNSALFLLRFINSDVVTELFFRPIIGAVSMDDMMLEMLCAKL
B4: Sall1 (protein, UniProt Q9ER74 1-1322)
chain: MSRRKQAKPQHFQSDPEVASLPRRDGDTEKGQPSRPTKSKDAHVCGRCCAEFFELSDLLLHKKSCTKNQLVLIVNESPASPAKTFPPGPSLNDPDDQMKDAANKADQEDCSDLSEPKGLDREESMEVEVPVATTTTTTTGGSGGSGGSTLSGVTNITTPSCHSGCSSGTSAITTSLPQLGDLTTLGNFSVINSNVIIENLQSTKVAVAQFSQEARCGGASGGKLLISTLMEQLLALQQQQIHQLQLIEQIRHQILLLASQSADLPAAPSIPSQGTLRTSANPLTTLSSHLSQQLAVAAGLAQSLASQSANISGVKQLPHVQLPQSSSGTSIVPPSGGTSPNMSIVTAAVPTPSSEKVASNAGASHVSSPAVSASSSPAFAISSLLSPESNPLLPQPTPANAVFPTPLPNIATTAEDLNSLSALAQQRKSKPPNVTAFEAKSTSDEAFFKHKCRFCAKVFGSDSALQIHLRSHTGERPFKCNICGNRFSTKGNLKVHFQRHKEKYPHIQMNPYPVPEHLDNVPTSTGIPYGMSIPSEKPVTSWLDTKPVLPTLTTSVGLPLPPTLPSLTPFIKTEEPAPIPISHSAASPQGSVKSDSGAPDLATRNPSGVPEEVEGSAVPPFGGKGEESNMASSAVPTAGNSTLNSPVADGGPGGTTFTNPLLPLMSEQFKAKFPFGGLLDSAQASETSKLQQLVENIDKKATDPNECIICHRVLSCQSALKMHYRTHTGERPFKCKICGRAFTTKGNLKTHYSVHRAMPPLRVQHSCPICQKKFTNAVVLQQHIRMHMGGQIPNTPVPDNYPESMESDTGSFDEKNFDDLDNFSDENMEECPEGSIPDTPKSADASQDSLSSSPLPLEMSSIAALENQMKMINAGLAEQLQASLKSVENGSMEGDVLTNDSSSVGGDMESQSAGSPAISESTSSMQALSPSNSTQEFHKSPGMEEKPQRVGPGEFANGLSPTPVNGGALDLTSSHAEKIIKEDSLGILFPFRDRGKFKNTACDICGKTFACQSALDIHYRSHTKERPFICTVCNRGFSTKGNLKQHMLTHQMRDLPSQLFEPSSNLGPNQNSAVIPANSLSSLIKTEVNGFVHVSPQDSKDAPTSHVPQGPLSSSATSPVLLPALPRRTPKQHYCNTCGKTFSSSSALQIHERTHTGEKPFACTICGRAFTTKGNLKVHMGTHMWNSTPARRGRRLSVDGPMTFLGGNPVKFPEMFQKDLAARSGSGDPSSFWNQYTAALSNGLAMKANEISVIQNGGIPPIPGSLGSGSSPISGLTGNVEKLGNSEPSAPLAGLEKMASSENGTNFRFTRFVEDSKEIVTS
B5: Esrra (protein, UniProt O08580 1-422)
chain: MSSQVVGIEPLYIKAEPASPDSPKGSSETETEPPVTLASGPAPARCLPGHKEEEDGEGAGSGEQGSGKLVLSSLPKRLCLVCGDVASGYHYGVASCEACKAFFKRTIQGSIEYSCPASNECEITKRRRKACQACRFTKCLRVGMLKEGVRLDRVRGGRQKYKRRPEVDPLPFPGPFPAGPLAVAGGPRKTAPVNALVSHLLVVEPEKLYAMPDPASPDGHLPAVATLCDLFDREIVVTISWAKSIPGFSSLSLSDQMSVLQSVWMEVLVLGVAQRSLPLQDELAFAEDLVLDEEGARAAGLGDLGAALLQLVRRLQALRLEREEYVLLKALALANSDSVHIEDAEAVEQLREALHEALLEYEAGRAGPGGGAERRRAGRLLLTLPLLRQTAGKVLAHFYGVKLEGKVPMHKLFLEMLEAMMD

No constants are given. Whether binding was seen depends on the method and setting. Binding seen in cells or lysates may run through a third protein. These calls come from enrichment with a bait or labelling near it, and not all partners need be listed. For part of these data: Tags and fused reporters may be left off the sequences shown.

One experiment addresses Oct4 (Pou5f1) (mouse (endogenous in 46C ESCs)) (UniProt P20263). In words: affinity purification with mass spectrometry; immunoprecipitation of endogenous Oct4 (antibody sc-8628 cross-linked to protein G Sepharose) from 1 ml 46C ESC nuclear extract, Benzonase, washes with C-100*, 4°C, boiled in SDS-loading dye; control goat IgG.
Turning to B1, the binding result is given as “binds”.
With B2, the binding entry is “binds”.
The same measure, in the same setting: to B3 belongs “binds”.
For the molecule B4, the binding result is “binds”.

Another experiment addresses FLAG-Oct4 (F-Oct4) (mouse) (UniProt P20263). In words: affinity purification with mass spectrometry; FLAG-affinity purification of F-Oct4 from 1.5 ml ESC nuclear extract on anti-FLAG M2 agarose, buffer C-100 (20 mM HEPES pH 7.6, 100 mM KCl), washes with 0.02% NP-40, Benzonase, 4°C, FLAG peptide elution; three purifications; control ZHBTc4 extract.
B1: the binding result is “binds”.
In the case of B2, the binding entry is listed as “binds”.
B3: the binding entry is “binds”.
As for B4, the binding entry was “binds”.

The target in another experiment is T1, FLAG-tagged Esrrb (F-Esrrb) (mouse) (UniProt Q61539).
T1 sequence: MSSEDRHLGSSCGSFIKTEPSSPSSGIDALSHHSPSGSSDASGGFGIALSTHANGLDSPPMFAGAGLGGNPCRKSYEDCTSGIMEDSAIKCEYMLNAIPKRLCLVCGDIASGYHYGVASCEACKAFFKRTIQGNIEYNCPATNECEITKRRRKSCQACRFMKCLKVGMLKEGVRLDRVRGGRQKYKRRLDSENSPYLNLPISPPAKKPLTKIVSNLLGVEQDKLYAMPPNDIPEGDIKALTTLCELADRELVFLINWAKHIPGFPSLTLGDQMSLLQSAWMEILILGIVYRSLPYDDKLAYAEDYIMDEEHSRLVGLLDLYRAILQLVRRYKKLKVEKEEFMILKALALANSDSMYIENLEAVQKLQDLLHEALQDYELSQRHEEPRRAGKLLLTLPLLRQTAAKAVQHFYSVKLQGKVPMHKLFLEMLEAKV
Nature of the experiment: affinity purification with mass spectrometry; FLAG-affinity purification of F-Sall4, F-Dax1, F-Tcfcp2l1 or F-Esrrb from nuclear extract of ZHBTc4-derived ESC clones, buffer C-100, Benzonase, FLAG peptide elution; two purifications each without and with doxycycline (16 hr, Oct4 removed); hits present in both -Dox purifications.
B2: the binding result was “binds”.
In the case of B3, the binding entry is reported as “binds”.
The same measure, in the same setting: to B5 belongs “binds”.

The target of a further experiment is FLAG-tagged Sall4 (F-Sall4) (mouse) (UniProt Q8BX22). The description is as above.
Take B1: the binding result was “binds”.
On to B4, for which the binding result is on record as “binds”.

Another experiment has as its target T2, FLAG-tagged Tcfcp2l1 (F-Tcfcp2l1) (mouse) (UniProt Q3UNW5).
T2 sequence: B2 chain
The experiment is described as above.
For the molecule B1, the binding result is given as “binds”.
Same read-out and setting: to B3 belongs “binds”.
